PubChem BioAssay AID1259308 – NCATS – 2017
Screen: 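Genes whose loss raises luciferase production in HEK293 cells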 (primary screen). Cell system: human HEK293 embryonic kidney cells stably expressing firefly luciferase (HEK-CMV-Luc2-Hygro). Reagent: single siRNA against human genes, 0.8 pmol siRNA per well. Timing: 72 h. Detection: 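Luciferase light (ONE-Glo) measured on one replicate plate set and viability (CellTiter-Glo) on the other, scaled to a negative control siRNA, with robust z-scores and luciferase per cell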. Scale: total luciferase, z-score and total luciferase, % of control: higher = more reporter protein produced; luciferase per cell, z-score: higher = more reporter output per viable cell; viable cells, % of control: higher = more viable cells. Call rule: 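Active when the median/MAD z-score for overall luciferase is greater than 3; a gene was taken forward for validation with new siRNAs if at least two of its three siRNAs passed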. Meaning of the calls: active = raised luciferase; inactive = no rise.
In all, the deposit lists about 59,000 reagents; shown is an unselected part. In the full data, about 1,510 (2.6%) are marked active. 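Calls use total luciferase alone and ignore viability, so some active siRNAs may act by altering cell number.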 Entries without a mark were called inactive. The numbers tell different reagents against one gene apart.

| gene knocked down | siRNA no. | total luciferase, z-score | total luciferase, % of control | luciferase per cell, z-score | viable cells, % of control |
| --- | --- | --- | --- | --- | --- |
| CCDC42 (coiled-coil domain containing 42) | 1 | -0.546 | 71 | -0.0111 | 79.6 |
| CCDC42 (coiled-coil domain containing 42) | 2 | -0.172 | 78.5 | -0.241 | 93.4 |
| CCDC42 (coiled-coil domain containing 42) | 3 | 0.0116 | 82.1 | -0.606 | 108 |
| CDC42EP1 (CDC42 effector protein 1) | 1 | -0.0644 | 80.6 | 0.349 | 82.2 |
| CDC42EP1 (CDC42 effector protein 1) | 2 | 0.416 | 90.2 | 0.2 | 95.6 |
| CDC42EP1 (CDC42 effector protein 1) | 3 | 2.65 | 135 | 2.09 | 86.6 |
| SMAD7 (SMAD family member 7) | 1 | 0.0065 | 82 | -0.479 | 104 |
| SMAD7 (SMAD family member 7) | 2 | 0.591 | 93.6 | 0.63 | 88.7 |
| SMAD7 (SMAD family member 7) | 3 | -0.955 | 62.9 | 0.279 | 65.3 |
| SGMS2 (sphingomyelin synthase 2) | 1 | -2.09 | 40.3 | -2.46 | 86 |
| SGMS2 (sphingomyelin synthase 2) | 2 | -0.265 | 76.6 | -0.536 | 98.6 |
| SGMS2 (sphingomyelin synthase 2) | 3 | -0.571 | 70.5 | -0.716 | 95.2 |
| USP9X (ubiquitin specific peptidase 9 X-linked) | 1 | 1.76 | 117 | 1.21 | 94.9 |
| USP9X (ubiquitin specific peptidase 9 X-linked) | 2 | 0.181 | 85.5 | -0.0598 | 97 |
| USP9X (ubiquitin specific peptidase 9 X-linked) | 3 | 0.0878 | 83.6 | 0.515 | 81.6 |
| SMC6 (structural maintenance of chromosomes 6) | 1 | -0.0639 | 80.6 | -0.195 | 94.8 |
| SMC6 (structural maintenance of chromosomes 6) | 2 | -1.34 | 55.2 | -1.72 | 97.2 |
| SMC6 (structural maintenance of chromosomes 6) | 3 | -0.0841 | 80.2 | -0.645 | 106 |
| CBLC (Cbl proto-oncogene C) | 1 | -0.105 | 79.8 | -0.227 | 94.7 |
| CBLC (Cbl proto-oncogene C) | 2 | -0.0654 | 80.6 | -0.223 | 95.5 |
| CBLC (Cbl proto-oncogene C) | 3 | 3.16 (active) | 145 | 2.01 | 95.2 |
| GTF3C1 (general transcription factor IIIC subunit 1) | 1 | -1.31 | 55.9 | -0.896 | 79.1 |
| GTF3C1 (general transcription factor IIIC subunit 1) | 2 | -1.48 | 52.4 | -1.73 | 92.2 |
| GTF3C1 (general transcription factor IIIC subunit 1) | 3 | 0.949 | 101 | 0.973 | 87.2 |
| FAM209B (family with sequence similarity 209 member B) | 1 | 0.401 | 89.9 | 0.535 | 87.2 |
| FAM209B (family with sequence similarity 209 member B) | 2 | 0.527 | 92.4 | 0.995 | 79.4 |
| FAM209B (family with sequence similarity 209 member B) | 3 | 0.62 | 94.2 | 0.624 | 89.3 |
| FMO4 (flavin containing dimethylaniline monoxygenase 4) | 1 | -0.915 | 63.7 | -0.973 | 92 |
| FMO4 (flavin containing dimethylaniline monoxygenase 4) | 2 | 0.784 | 97.5 | 0.0668 | 107 |
| FMO4 (flavin containing dimethylaniline monoxygenase 4) | 3 | 0.703 | 95.9 | 0.114 | 104 |
| DNAAF6 (dynein axonemal assembly factor 6) | 1 | -0.319 | 75.5 | -0.0962 | 86.6 |
| DNAAF6 (dynein axonemal assembly factor 6) | 2 | -1.89 | 44.3 | -2.23 | 89.1 |
| DNAAF6 (dynein axonemal assembly factor 6) | 3 | -0.819 | 65.6 | -1.43 | 107 |
| LOC390877 (adenylate kinase isoenzyme 1-like) | 1 | 0.236 | 86.6 | 0.176 | 92.4 |
| LOC390877 (adenylate kinase isoenzyme 1-like) | 2 | 0.606 | 93.9 | -0.709 | 127 |
| LOC390877 (adenylate kinase isoenzyme 1-like) | 3 | 0.572 | 93.3 | 0.449 | 92.6 |
| CCNJL (cyclin J like) | 1 | 2.11 | 124 | 3.4 | 56.6 |
| CCNJL (cyclin J like) | 2 | -1.83 | 45.5 | -1.4 | 73.4 |
| CCNJL (cyclin J like) | 3 | -0.189 | 78.1 | -0.224 | 92.6 |

2 successive reagents from above, quoted:
| gene knocked down | siRNA no. | total luciferase, z-score | total luciferase, % of control | luciferase per cell, z-score | viable cells, % of control |
| --- | --- | --- | --- | --- | --- |
| SMAD7 (SMAD family member 7) | 2 | 0.591 | 93.6 | 0.63 | 88.7 |
| SMAD7 (SMAD family member 7) | 3 | -0.955 | 62.9 | 0.279 | 65.3 |
